# Measured values published in doi:10.1101/2024.07.25.605061.
# Amino acid sequences for entries named in this document (tags omitted). A change or cut given only in a name is not applied to a line headed by its entry.
# UniProt Q9S7T1: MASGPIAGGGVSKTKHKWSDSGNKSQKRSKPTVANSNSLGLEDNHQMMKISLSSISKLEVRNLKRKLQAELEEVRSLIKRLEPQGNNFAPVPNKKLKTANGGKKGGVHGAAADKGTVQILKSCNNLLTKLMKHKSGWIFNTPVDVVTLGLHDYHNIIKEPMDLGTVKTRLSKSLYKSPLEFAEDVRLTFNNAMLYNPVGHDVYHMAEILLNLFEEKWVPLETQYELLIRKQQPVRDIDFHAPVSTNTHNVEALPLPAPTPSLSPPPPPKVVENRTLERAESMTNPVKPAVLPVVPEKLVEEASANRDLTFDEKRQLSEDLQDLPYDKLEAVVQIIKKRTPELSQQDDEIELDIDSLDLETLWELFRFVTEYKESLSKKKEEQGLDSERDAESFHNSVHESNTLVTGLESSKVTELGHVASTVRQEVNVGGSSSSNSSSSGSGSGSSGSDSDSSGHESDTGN
# Read-outs that look alike come from different tables or passages of the source. No constants are given. Whether binding was seen depends on the method and setting. In cells and extracts the contact can be indirect. A yes stands for co-enrichment or nearness to the bait. Other partners may have been found. For some of these results: A no says only that the protein was not detected with the bait. Tags and fused reporters may be left off the sequences shown.
# T1: EML2-FLAG (Arabidopsis thaliana) (UniProt Q9FG29)
# T1 sequence: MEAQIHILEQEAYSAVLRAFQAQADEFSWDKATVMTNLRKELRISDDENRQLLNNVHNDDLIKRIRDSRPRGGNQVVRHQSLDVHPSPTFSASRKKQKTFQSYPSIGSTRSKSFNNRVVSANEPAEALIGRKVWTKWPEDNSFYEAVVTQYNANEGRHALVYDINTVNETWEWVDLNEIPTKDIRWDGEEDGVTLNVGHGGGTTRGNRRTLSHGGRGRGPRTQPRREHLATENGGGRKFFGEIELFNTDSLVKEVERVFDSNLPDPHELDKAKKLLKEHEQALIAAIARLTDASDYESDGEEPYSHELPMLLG
# T2: GTE4-ΔEID-FLAG (Arabidopsis thaliana) (UniProt Q9LNC4)
# T2 sequence: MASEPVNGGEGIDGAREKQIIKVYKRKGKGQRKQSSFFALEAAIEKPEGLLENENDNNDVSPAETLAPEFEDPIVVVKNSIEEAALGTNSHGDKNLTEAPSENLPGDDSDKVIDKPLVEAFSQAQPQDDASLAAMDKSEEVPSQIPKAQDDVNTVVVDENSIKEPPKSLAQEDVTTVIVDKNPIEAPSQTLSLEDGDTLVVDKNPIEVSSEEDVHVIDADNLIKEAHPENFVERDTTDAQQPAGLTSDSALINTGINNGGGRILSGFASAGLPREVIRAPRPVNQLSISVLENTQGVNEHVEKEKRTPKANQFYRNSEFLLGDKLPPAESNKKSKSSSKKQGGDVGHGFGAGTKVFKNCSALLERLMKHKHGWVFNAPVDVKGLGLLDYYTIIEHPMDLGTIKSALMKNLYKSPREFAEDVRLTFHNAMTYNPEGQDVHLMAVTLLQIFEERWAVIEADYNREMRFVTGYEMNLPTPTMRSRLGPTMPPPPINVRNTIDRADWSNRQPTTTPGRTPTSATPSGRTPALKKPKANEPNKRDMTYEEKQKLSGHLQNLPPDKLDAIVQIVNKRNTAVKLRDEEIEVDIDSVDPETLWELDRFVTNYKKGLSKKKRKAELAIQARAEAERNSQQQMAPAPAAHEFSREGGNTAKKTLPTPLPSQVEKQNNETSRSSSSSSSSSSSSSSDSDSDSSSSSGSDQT
# T3: GTE4-FLAG (Arabidopsis thaliana) (UniProt Q9LNC4)
# T3 sequence: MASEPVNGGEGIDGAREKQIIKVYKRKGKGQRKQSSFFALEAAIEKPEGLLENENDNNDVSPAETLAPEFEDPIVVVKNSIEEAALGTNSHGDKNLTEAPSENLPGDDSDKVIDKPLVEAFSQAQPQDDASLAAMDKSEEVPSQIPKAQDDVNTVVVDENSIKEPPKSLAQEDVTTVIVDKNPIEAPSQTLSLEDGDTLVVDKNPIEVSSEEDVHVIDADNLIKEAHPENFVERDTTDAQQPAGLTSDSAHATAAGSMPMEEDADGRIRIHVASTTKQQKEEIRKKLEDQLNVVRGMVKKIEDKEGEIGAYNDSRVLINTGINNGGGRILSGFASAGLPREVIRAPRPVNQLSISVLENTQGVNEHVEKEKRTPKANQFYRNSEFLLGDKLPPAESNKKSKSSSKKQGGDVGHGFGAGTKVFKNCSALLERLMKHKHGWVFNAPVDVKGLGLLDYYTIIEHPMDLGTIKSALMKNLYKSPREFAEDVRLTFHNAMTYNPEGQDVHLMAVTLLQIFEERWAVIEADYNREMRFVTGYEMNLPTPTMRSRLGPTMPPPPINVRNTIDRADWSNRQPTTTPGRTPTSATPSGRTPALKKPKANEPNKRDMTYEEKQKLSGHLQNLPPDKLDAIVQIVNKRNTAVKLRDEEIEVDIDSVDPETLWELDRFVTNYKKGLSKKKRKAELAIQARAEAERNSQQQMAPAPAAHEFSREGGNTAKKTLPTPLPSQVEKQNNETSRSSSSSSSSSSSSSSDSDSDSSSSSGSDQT
# T4: EML1-FLAG (Arabidopsis thaliana) (UniProt Q9C7C4)
# T4 sequence: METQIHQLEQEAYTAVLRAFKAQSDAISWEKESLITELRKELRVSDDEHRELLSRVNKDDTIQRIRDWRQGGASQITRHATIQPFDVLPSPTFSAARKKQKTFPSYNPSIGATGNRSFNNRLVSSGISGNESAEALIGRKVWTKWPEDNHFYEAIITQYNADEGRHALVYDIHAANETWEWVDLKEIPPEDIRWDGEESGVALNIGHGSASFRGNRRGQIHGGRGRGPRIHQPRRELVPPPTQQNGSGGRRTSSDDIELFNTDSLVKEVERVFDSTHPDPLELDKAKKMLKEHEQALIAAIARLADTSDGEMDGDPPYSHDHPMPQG
# Key:
# Assay in all cases: affinity purification with mass spectrometry
# [1] = target: T1, EML2-FLAG (Arabidopsis thaliana)
# [2] = target: T2, GTE4-ΔEID-FLAG (Arabidopsis thaliana)
# [3] = target: T3, GTE4-FLAG (Arabidopsis thaliana)
# [4] = target: T1, EML2-FLAG (Arabidopsis thaliana); remark: listed apart in the source
# [5] = target: T4, EML1-FLAG (Arabidopsis thaliana)
binding [1],binding [2],binding [3],binding [4],binding [5],Molecule
binds,–,–,–,–,GTE3 (endogenous) (from UniProt Q9S7T1)
–,no binding,binds,–,–,"EML2 (endogenous) (protein, UniProt Q9FG29 1-313) MEAQIHILEQEAYSAVLRAFQAQADEFSWDKATVMTNLRKELRISDDENRQLLNNVHNDDLIKRIRDSRPRGGNQVVRHQSLDVHPSPTFSASRKKQKTFQSYPSIGSTRSKSFNNRVVSANEPAEALIGRKVWTKWPEDNSFYEAVVTQYNANEGRHALVYDINTVNETWEWVDLNEIPTKDIRWDGEEDGVTLNVGHGGGTTRGNRRTLSHGGRGRGPRTQPRREHLATENGGGRKFFGEIELFNTDSLVKEVERVFDSNLPDPHELDKAKKLLKEHEQALIAAIARLTDASDYESDGEEPYSHELPMLLG"
–,no binding,binds,–,–,"EML1 (endogenous) (protein, UniProt Q9C7C4 1-327) METQIHQLEQEAYTAVLRAFKAQSDAISWEKESLITELRKELRVSDDEHRELLSRVNKDDTIQRIRDWRQGGASQITRHATIQPFDVLPSPTFSAARKKQKTFPSYNPSIGATGNRSFNNRLVSSGISGNESAEALIGRKVWTKWPEDNHFYEAIITQYNADEGRHALVYDIHAANETWEWVDLKEIPPEDIRWDGEESGVALNIGHGSASFRGNRRGQIHGGRGRGPRIHQPRRELVPPPTQQNGSGGRRTSSDDIELFNTDSLVKEVERVFDSTHPDPLELDKAKKMLKEHEQALIAAIARLADTSDGEMDGDPPYSHDHPMPQG"
–,–,–,binds,binds,"GTE4 (endogenous) (protein, UniProt Q9LNC4 1-766) MASEPVNGGEGIDGAREKQIIKVYKRKGKGQRKQSSFFALEAAIEKPEGLLENENDNNDVSPAETLAPEFEDPIVVVKNSIEEAALGTNSHGDKNLTEAPSENLPGDDSDKVIDKPLVEAFSQAQPQDDASLAAMDKSEEVPSQIPKAQDDVNTVVVDENSIKEPPKSLAQEDVTTVIVDKNPIEAPSQTLSLEDGDTLVVDKNPIEVSSEEDVHVIDADNLIKEAHPENFVERDTTDAQQPAGLTSDSAHATAAGSMPMEEDADGRIRIHVASTTKQQKEEIRKKLEDQLNVVRGMVKKIEDKEGEIGAYNDSRVLINTGINNGGGRILSGFASAGLPREVIRAPRPVNQLSISVLENTQGVNEHVEKEKRTPKANQFYRNSEFLLGDKLPPAESNKKSKSSSKKQGGDVGHGFGAGTKVFKNCSALLERLMKHKHGWVFNAPVDVKGLGLLDYYTIIEHPMDLGTIKSALMKNLYKSPREFAEDVRLTFHNAMTYNPEGQDVHLMAVTLLQIFEERWAVIEADYNREMRFVTGYEMNLPTPTMRSRLGPTMPPPPINVRNTIDRADWSNRQPTTTPGRTPTSATPSGRTPALKKPKANEPNKRDMTYEEKQKLSGHLQNLPPDKLDAIVQIVNKRNTAVKLRDEEIEVDIDSVDPETLWELDRFVTNYKKGLSKKKRKAELAIQARAEAERNSQQQMAPAPAAHEFSREGGNTAKKTLPTPLPSQVEKQNNETSRSSSSSSSSSSSSSSDSDSDSSSSSGSDQT"
